Results as given in PubChem BioAssay AID504467 (National Center for Advancing Translational Sciences (NCATS), 2011).
Several values for one entry are separate records, joined by “and”; a condition that tells them apart may be missing. Equal values may be shown once. Screen size: about 330,000 compounds; about 7,700 (2.3%) were called active. This list was built around the results that the source calls inconclusive (neither active nor inactive); the mix of calls is not that of the screen. The call rests on the fitted dose curve; in most records, active means well fitted inhibition curve with a large enough effect; inconclusive means small, poorly fitted or top-dose-only effect, or effect the other way; inactive means flat fitted curve, though single readings scatter. Potencies of inconclusive entries are doubtful fits and often do not repeat.

test: qHTS screen for small molecules that inhibit ELG1-dependent DNA repair in human embryonic kidney (HEK293T) cells expressing luciferase-tagged ELG1; details: HEK293T ELG1-luciferase reporter, luminescence, 16 h, DNA damage induced by 5-fluorouridine; activity change, negative = inhibition: at 46.1 µM (top of the series); further: nearly all actives have a fitted effect of over 55% in size
Outline: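 DMSO vehicle served as the neutral condition. Each well held 2,000 cells given 5-fluorouridine plus compound; after 16 hr at 37 °C/5% CO2, ONE-Glo was added and luciferase measured 30 min later.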
On the % scale 0 is the no-effect control and ±100 the full control effect; potency means the concentration at half of the fitted maximal effect.

SMILES | Potency | activity change, negative = inhibition
COc1cccc(/C=N/Nc2nc(Nc3ccc([N+](=O)[O-])cc3)nc(N3CCCC3)n2)c1O | active: 6.51 µM | –
O=C(Nc1nnc(C2CC2)s1)c1cc(-c2ccccc2)nn1-c1ccccc1 | inconclusive: 16.4 µM [inhibitor, single point] | –
CCC(NC(=O)Nc1nnc(C(F)(F)F)s1)(C(F)(F)F)C(F)(F)F | active: 23.1 µM | –
CCOC(=O)N1CCN(C(=O)c2cn(CC(C)C)c(=O)c3c2c2ccccc2n3C)CC1 | active: 18.4 µM | –
Cc1ccnc(NC(=O)c2ccc(N3C(=O)CCC3=O)cc2)c1 | inconclusive: 23.1 µM [activator, partial curve] | –
Cc1oc2c(CN3CCCCC3C)c(O)ccc2c(=O)c1-c1ccc(Br)cc1 (centres undefined) | – | inactive: -19.6%
CCOC(=O)c1sc(=NC(=O)c2ccc(Cl)s2)n(C)c1C | inconclusive: 2.31 µM [activator, full curve] | –
CCOC(=O)c1ccc(NC(=O)NC2CCN(CC(=O)NCc3ccc4c(c3)OCO4)CC2)cc1 | inconclusive: 8.2 µM [inhibitor, partial curve, poor fit] | –
Fc1ccccc1OCCCCN1CCCCC1 | – | inactive: -15.6%
CCC(=O)N1c2ccc(S(=O)(=O)CCC(=O)N3CCN(c4ccccc4F)CC3)cc2CC1C (centres undefined) | – | inactive: -7.26%
Cc1[nH]n(-c2ccccc2)c(=O)c1C=Nc1ccc(S(=O)(=O)NC(N)=O)cc1 | – | inactive: 3.3%
Cc1ccc(COc2ccc(-c3nnco3)cc2)cc1 | inconclusive: 14.6 µM [activator, partial curve] | –
CCOC(=O)N1CCC(N2CCCC(C(=O)c3cc(C)c(OC)c(C)c3)C2)CC1 (centres undefined) | inconclusive: 29.1 µM [inhibitor, single point] | –
O=C(c1ccc(S(=O)(=O)c2ccccc2)cc1)N1CCc2ccccc2C1 | inconclusive: 5.8 µM [inhibitor, partial curve, poor fit] | –
O=C(Nc1ccc(C(F)(F)F)cc1)C1CCCN1S(=O)(=O)c1cccc2cccnc12 (centres undefined) | active: 20.6 µM | –
NC(=O)Cn1cc(C(=O)c2cccs2)c2ccccc21 | inconclusive: 32.6 µM [activator, partial curve, poor fit] | –
C/C(=N\O)C(C)(C)Nc1cccc(F)c1 | – | inactive: 12.7%
CC(/C=C1\SC(=S)N(CC(=O)O)C1=O)=C\c1ccccc1 | inconclusive: 18.3 µM [activator, partial curve] | –
COc1ccc(-c2sc(Nc3ccccc3)n[n+]2-c2ccccc2)cc1Br | inconclusive: 29.1 µM [activator, single point] | –
COc1cc(C(=O)NC(=S)NC(C)C)cc(OC)c1OC | inconclusive: 14.6 µM [inhibitor, partial curve] | –
COc1ccc(C/C(N)=N/OC(=O)c2ccc(Cl)cc2)cc1 | – | inactive: 10.1%
Cn1c2cc(Br)sc2c2cnn(Cc3ccc(F)cc3F)c(=O)c21 | inconclusive: 25.9 µM [inhibitor, single point] | –
Cc1c2cnn(CC(=O)Nc3c(F)c(F)cc(F)c3F)c(=O)c2c(C)n1Cc1ccccc1F | inconclusive: 6.51 µM [inhibitor, partial curve] | –

SMILES | Potency | activity change, negative = inhibition
NC(=O)c1ccccc1NC(=O)/C=C/c1cccc(Cl)c1 | inconclusive: 10.3 µM [activator, partial curve] | –
Cn1nnnc1SCC(=O)Nc1cc(C(F)(F)F)ccc1N1CCOCC1 | – | inactive: 13.7%
COc1ccc(-c2nc(CSCC(=O)NCc3ccc4c(c3)OCO4)c(C)o2)cc1 | inconclusive: 29.1 µM [inhibitor, single point] | –
CCCCCNC(=O)c1cc(S(=O)(=O)N2CCCCC2)ccc1F | inconclusive: 0.92 µM [inhibitor, single point] | –
C=CC[C@H](CC(=O)NCCO)C(=O)NCCOC(=O)[C@@H](CC=C)CC(=O)OC(C)(C)C | – | inactive: 20.1%
O=C(c1ccc(COc2ccccc2Cl)o1)N1CCN(Cc2ccc3c(c2)OCO3)CC1 | inconclusive: 16.4 µM [inhibitor, partial curve, poor fit] and inconclusive: 29.1 µM [inhibitor, single point] | –
COc1ccccc1NC(=O)COc1ccc(CO)cc1Cl | inconclusive: 14.6 µM [activator, partial curve] | –
CCn1cc(CN2CCN(Cc3ccc(OC)c(C)c3C)C(CCO)C2)c(C)n1 (centres undefined) | inconclusive: 23.1 µM [inhibitor, single point] | –
Cc1cc(C)n(-c2nnc(C)n2/N=C/c2cc(Br)ccc2OCc2ccccc2)n1 | inconclusive: 29.1 µM [inhibitor, single point] | –
COc1ccc(-c2nnn(CC(=O)Nc3ccc4c(c3)OCCO4)n2)cc1OC | – | inactive: 0.411%
Cc1cc(NC(=O)CCC(=O)N(c2ccccc2)C(C(=O)NC2CCCC2)c2ccccc2F)no1 (centres undefined) | – | inactive: -6.07%
COC(=O)c1cc(NC(=O)c2cc(C(C)(C)C)nn2Cc2cccc(C)c2)ccc1N1CCOCC1 | active: 16.4 µM | –
Cc1ccc(C)c(NC(=S)N(Cc2ccc(Cl)cc2)Cc2ccc(C(=O)O)cc2)c1 | – | inactive: -7.36%
Cc1onc(-c2ccccc2)c1C(=O)N1CCN(S(=O)(=O)c2ccccc2Br)CC1 | inconclusive: 16.4 µM [inhibitor, single point] | –
CCCc1ccc2oc(C(=O)N(C)CCn3ccnc3C)c(C)c2c1 | inconclusive: 32.6 µM [activator, partial curve, poor fit] | –
COCC(C)n1c(SCc2ccc(C(=O)OC)o2)nc2ccccc2c1=O (centres undefined) | inconclusive: 20.6 µM [inhibitor, partial curve, poor fit] | –
COc1ccc(NS(=O)(=O)c2ccc3nc(COc4ccc5ccccc5c4)[nH]c3c2)cc1 | active: 23.1 µM | –
CCOc1ccc(Nc2n[nH]c(=S)s2)cc1 | inconclusive: 3.66 µM [activator, partial curve] | –
COc1ccc(C(=O)Nc2cccc(/C=C/c3nc4ccccc4c(=O)[nH]3)c2)cc1 | inconclusive: 6.51 µM [inhibitor, single point] | –
COc1cccc(-n2c(N)c(-c3nc4ccccc4[nH]3)sc2=S)c1 | inconclusive: 25.9 µM [inhibitor, single point] | –
O=C(c1cc2ccccc2o1)N(Cc1nnc(-c2ccccc2Cl)o1)C1CC1 | inconclusive: 7.3 µM [activator, single point] | –
O=C(NCCCO)C(=O)NCc1ccccn1 | – | inactive: 15.2%
O=C(O)c1cccc(S(=O)(=O)N(Cc2ccccc2)c2cccc(C(F)(F)F)c2)c1 | – | inactive: -12.7%

Retrieved by structure from the entries so far (four):
SMILES | Potency | activity change, negative = inhibition
CCCc1ccc2oc(C(=O)N(C)CCn3ccnc3C)c(C)c2c1 | inconclusive: 32.6 µM [activator, partial curve, poor fit] | –
COCC(C)n1c(SCc2ccc(C(=O)OC)o2)nc2ccccc2c1=O (centres undefined) | inconclusive: 20.6 µM [inhibitor, partial curve, poor fit] | –
COC(=O)c1cc(NC(=O)c2cc(C(C)(C)C)nn2Cc2cccc(C)c2)ccc1N1CCOCC1 | active: 16.4 µM | –
COc1ccc(-c2nnn(CC(=O)Nc3ccc4c(c3)OCCO4)n2)cc1OC | – | inactive: 0.411%

Carrying on.

SMILES | Potency | activity change, negative = inhibition
Cc1ccc([N+](=O)[O-])cc1NC(=O)c1ccc(C(C)(C)C)cc1 | inconclusive: 20.6 µM [inhibitor, single point] | –
Cc1cc(NC(=O)Cc2csc(-c3ccccc3)n2)ccc1Br | – | inactive: 1.18%
CCOc1cc(NS(=O)(=O)c2ccc(NC(C)=O)cc2)c(OCC)cc1NC(=O)c1cccs1 | – | inactive: -9%
Cc1cc(=O)[nH]c(N/N=C/c2cccc(Br)c2)n1 | inconclusive: 6.31 µM [activator, single point] | –
O=C(CSCCO)Nc1cccc([N+](=O)[O-])c1 | inconclusive: 23.1 µM [activator, partial curve, poor fit] | –
CCN(CC)S(=O)(=O)c1ccccc1/C=N\O | inconclusive: 20.6 µM [activator, partial curve, poor fit] | –
CN1/C(=C\C(=O)c2ccco2)C(C)(C)c2ccccc21 | inconclusive: 23.1 µM [inhibitor, single point] | –
CC(C)(C)C(=O)Cn1ncc(NC2CC2)c(Br)c1=O | inconclusive: 29.1 µM [activator, single point] | –
NC(=O)COC(=O)c1c2c(nc3ccccc13)CCCC2 | – | inactive: -0.541%
O=C(NC(=S)Nc1cc(Cl)ccc1N1CCOCC1)c1ccccc1[N+](=O)[O-] | active: 16.4 µM | –
CNC(=S)N1CCN(c2c(F)cc3c(=O)c(C(=O)O)cn(C4CC4)c3c2OC)CC1C (centres undefined) | inconclusive: 29.1 µM [inhibitor, single point] | –
COc1cccc(N(CC(=O)NC2CCCCCC2)S(=O)(=O)c2ccccc2)c1 | – | inactive: 8.34%
C/C(CC(=O)Nc1ccc2ccccc2c1)=N\NC(=O)c1cnccn1 | inconclusive: 20.6 µM [activator, single point] | –
COc1ccc(N2CCN(c3ncnc4nc[nH]c34)CC2)cc1 | inconclusive: 9.2 µM [activator, partial curve] | –
O=C(NNC(=S)NC(=O)C12CC3CC(CC(C3)C1)C2)c1ccncc1 | – | inactive: 1.89%
COc1ccc(C)cc1NC(=O)C(Sc1nnc(Nc2cc(C)ccc2OC)s1)c1ccccc1 (centres undefined) | inconclusive: 9.2 µM [inhibitor, partial curve] | –
Cc1ccc(C)c(N2CCN(c3ncccc3[N+](=O)[O-])CC2)c1 | – | inactive: -14.5%
COC(=O)/C(=C\c1cc(OC)c(OC)c(OC)c1)c1nc2ccccc2[nH]1 | inconclusive: 18.3 µM [inhibitor, single point] | –
O=C(Nc1ccc(Cl)cc1)c1ccc2c(=O)n3c(nc2c1)CCCCC3 | inconclusive: 29.1 µM [inhibitor, single point] | –
CCOC(=O)c1cc(NC(=O)c2ccccc2)c(=O)oc1C(F)(F)F | inconclusive: 25.9 µM [activator, single point] | –
Cc1ccc(NS(=O)(=O)c2ccc(NC(=O)C3CCCO3)cc2)cc1 (centres undefined) | inconclusive: 20.6 µM [inhibitor, single point] | –
Cc1cccc(NC(=O)C2CCN(C(=O)[C@@H]3Cc4ccccc4CN3)CC2)c1 | – | inactive: 0%
CCOC(=O)c1c(N)sc(C(=O)Nc2ccc3c(c2)OCO3)c1C | inconclusive: 0.366 µM [activator, partial curve] | –
